# Results from patent publication US20260139023A1.
# The chains behind the UniProt entries cited, without tags or fusion partners. Where a name states a change or a piece, a line headed by the entry shows the natural chain unless it says otherwise.
# UniProt P06756: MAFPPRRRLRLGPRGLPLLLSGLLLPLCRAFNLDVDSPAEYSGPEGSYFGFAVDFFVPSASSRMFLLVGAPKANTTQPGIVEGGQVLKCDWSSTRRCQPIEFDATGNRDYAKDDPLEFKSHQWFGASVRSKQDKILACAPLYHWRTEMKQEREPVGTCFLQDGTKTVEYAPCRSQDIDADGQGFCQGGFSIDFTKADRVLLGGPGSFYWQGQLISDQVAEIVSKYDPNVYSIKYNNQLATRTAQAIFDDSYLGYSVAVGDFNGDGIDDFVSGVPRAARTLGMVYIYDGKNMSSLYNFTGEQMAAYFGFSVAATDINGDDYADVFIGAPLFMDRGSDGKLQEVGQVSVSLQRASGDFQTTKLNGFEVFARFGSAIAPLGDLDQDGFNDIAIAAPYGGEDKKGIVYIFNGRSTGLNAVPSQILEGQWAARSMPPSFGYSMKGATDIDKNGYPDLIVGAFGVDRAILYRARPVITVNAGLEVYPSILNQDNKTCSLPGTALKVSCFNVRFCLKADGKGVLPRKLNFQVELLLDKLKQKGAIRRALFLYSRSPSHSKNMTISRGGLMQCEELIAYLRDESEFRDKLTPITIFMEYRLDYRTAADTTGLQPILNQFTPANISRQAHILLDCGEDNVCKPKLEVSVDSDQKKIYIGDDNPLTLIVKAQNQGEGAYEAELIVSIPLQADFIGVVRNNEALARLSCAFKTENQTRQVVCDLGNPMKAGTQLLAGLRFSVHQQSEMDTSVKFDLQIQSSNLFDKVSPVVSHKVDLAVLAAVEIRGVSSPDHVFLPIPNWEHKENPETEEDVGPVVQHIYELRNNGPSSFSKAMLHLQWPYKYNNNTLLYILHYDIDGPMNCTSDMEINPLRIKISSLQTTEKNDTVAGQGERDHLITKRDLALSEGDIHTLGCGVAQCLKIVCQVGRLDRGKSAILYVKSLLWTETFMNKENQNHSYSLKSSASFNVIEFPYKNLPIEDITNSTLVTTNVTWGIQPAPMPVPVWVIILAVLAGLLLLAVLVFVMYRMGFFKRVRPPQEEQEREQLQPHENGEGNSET
# UniProt P18084: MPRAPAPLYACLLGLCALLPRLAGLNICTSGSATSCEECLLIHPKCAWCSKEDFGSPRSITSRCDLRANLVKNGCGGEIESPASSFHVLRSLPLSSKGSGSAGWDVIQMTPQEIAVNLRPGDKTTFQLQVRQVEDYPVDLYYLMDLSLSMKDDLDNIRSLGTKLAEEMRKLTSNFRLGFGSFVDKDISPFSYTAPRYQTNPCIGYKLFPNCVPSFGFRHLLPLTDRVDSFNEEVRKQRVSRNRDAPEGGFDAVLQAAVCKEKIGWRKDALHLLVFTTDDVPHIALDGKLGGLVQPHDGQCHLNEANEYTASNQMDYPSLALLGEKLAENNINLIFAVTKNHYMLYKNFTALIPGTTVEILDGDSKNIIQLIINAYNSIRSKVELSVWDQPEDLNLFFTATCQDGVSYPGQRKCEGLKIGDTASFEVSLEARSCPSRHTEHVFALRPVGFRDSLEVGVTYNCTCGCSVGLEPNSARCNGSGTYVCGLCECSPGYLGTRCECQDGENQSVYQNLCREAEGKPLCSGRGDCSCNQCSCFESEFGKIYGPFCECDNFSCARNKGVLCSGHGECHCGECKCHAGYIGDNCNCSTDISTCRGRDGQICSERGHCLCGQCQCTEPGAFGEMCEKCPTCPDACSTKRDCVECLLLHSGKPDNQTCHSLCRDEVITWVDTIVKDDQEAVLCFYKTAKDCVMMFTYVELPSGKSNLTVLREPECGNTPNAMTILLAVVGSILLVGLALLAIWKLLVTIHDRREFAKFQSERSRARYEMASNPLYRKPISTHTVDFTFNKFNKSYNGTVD
# Results are given in words; binding and its absence hold for the method and conditions named. For part of these data: In cells and extracts the contact can be indirect. Some results given as binding are weak or reduced against the parent protein; the word gives no strength.
# Experiments:
# [1] = biological target: endogenous cell surface integrin αVβ5 on SK-Mel2 cells (human) (UniProt P06756+P18084); assay: co-immunoprecipitation from SK-Mel2 cells; cell surface Hsp90α captured by anti-Hsp90α on live cells at 4° C (FIG. 9B)
# [2] = biological target: T1, clasped and tagged αVβ5 (recombinant human αVβ5 ectodomain with C-terminal coiled-coil clasp and affinity tags) (human) (UniProt P06756+P18084); assay: TALON pull-down, bead-bound clasped αVβ5 and untagged Hsp90α, Coomassie staining (FIG. 8C)
# [3] = biological target: T1, clasped and tagged αVβ5 (recombinant human αVβ5 ectodomain with C-terminal coiled-coil clasp and affinity tags) (human); assay: TALON pull-down, 1 µM bead-bound clasped and tagged αVβ5, 2 µM Hsp90α as Apo, ATP, AMP-PNP or ADP form; Coomassie and western blot (FIG. 4F)
binding [1],binding [2],binding [3],Substance
binds,–,–,endogenous cell surface eHsp90α on SK-Mel2 cells (from UniProt P07900 2-732)
–,binds,binds,"recombinant human Hsp90α (purified from E. coli, untagged) (from UniProt P07900 2-732)"
